Assay results published in US5698516A (Ferring B.V., priority 1993, dated 1997).
Some peptides are written in HELM: one residue between dots, names in brackets for other building blocks, links after the first $. The same purity stands for every peptide and may come from a single statement.

Assay: general procedure: Fmoc solid-phase peptide synthesis; TentaGel-S RAM-resin (1 g, 0.2 mmol/g; RAPP Polymere S 30 023); TBTU (cyclization)
Conditions: whole synthesis, scale of the general procedure 1 g resin
In the case of “PEPTIDE1{[CH2CH2CH2CO].[D-Thi].M.V.N.C.[Hyp].[dR].G.[am]}$PEPTIDE1,PEPTIDE1,1:R3-6:R3$$$V2.0”, the “final HPLC purity” value is reported as 99%.
In the case of “PEPTIDE1{[CH2CH2CH2CO].[D-Thi].[Thi].[CaMeAbu].N.C.[Hyp].[dR].G.[am]}$PEPTIDE1,PEPTIDE1,1:R3-6:R3$$$V2.0”, the “final HPLC purity” value is reported as 99%.
In the case of “PEPTIDE1{[CH2CH2CH2CO].[dF].[Thi].V.N.C.[Hyp].[dR].G.[am]}$PEPTIDE1,PEPTIDE1,1:R3-6:R3$$$V2.0”, the “final HPLC purity” value is reported as 99%.
In the case of “PEPTIDE1{[CH2CH2CH2CO].[dF].[Thi].[CaMeAbu].N.C.[Hyp].[dR].G.[am]}$PEPTIDE1,PEPTIDE1,1:R3-6:R3$$$V2.0”, the “final HPLC purity” value is reported as 99%.
In the case of “PEPTIDE1{[CH2CH2CH2CO].[dY].F.V.N.C.P.[dR].G.[am]}$PEPTIDE1,PEPTIDE1,1:R3-6:R3$$$V2.0”, the “final HPLC purity” value is reported as 99%.
With “PEPTIDE1{[CH2CH2CH2CO].[dY].[Thi].[CaMeAbu].N.C.[Hyp].[dR].G.[am]}$PEPTIDE1,PEPTIDE1,1:R3-6:R3$$$V2.0” the “final HPLC purity” value was 99%.
